# From PubChem BioAssay AID1347423 (Functional Genomics Laboratory (NCATS/FGL), 2020)
# The whole screen tested about 52,000 sequences, of which about 210 (0.4%) were called active.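 The calls were made as follows: active = gene whose silencing raises cell survival under the drug, median off-target-corrected z-score across its silencing RNAs 2 or more; inactive = the rest.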 The list shows a part of the results.
# Test: Resistance to Poly (ADP-Ribose) Polymerase inhibitor: Gene Identification via Genome-wide siRNA Screen
# Settings: mouse BRCA2 R2336H ES cells, olaparib, CellTiter-Glo viability; hits give high values
# Source text: The role of Poly (ADP-Ribose) Polymerase (PARP) proteins in DNA repair has been elegantly utilized for the synthetic lethality-based treatment of BRCA-deficient tumors by PARP inhibitors. PARP inhibitors are now being used for treatment of BRCA-deficient breast and ovarian cancers. […] While several mechanisms of drug resistance have been identified, majority of these tumors develop drug resistance due to unknown causes. To identified novel regulators of chemo-resistance in BRCA2-mutated cells, we performed a genome wide siRNA library screen. We have found ES cells expressing a hypomorphic allele of BRCA2 to be hypersensitive to PAPP inhibitors (such as olaparib). We used ES cells expressing a mutant allele of BRCA2 that has a single amino acid substitution at position 2336 (arginine to histidine, R2336H). The screen was conducted using an Ambion (Thermo) Silencer Mouse Genome siRNA collection. The library targets 17,575 mouse genes with 3 siRNAs per gene. TET2 (E130014J05Rik) was identified as a top candidate.
# Transfections were performed in 384 well plates (Corning 3707). Plates were coated with 0.1% gelatin in H2O overnight at ambient temperature. Gelatin solution was aspirated (BioTek EL406) and siRNAs were printed using a Bravo VPrep liquid handler integrated within a BioCel automation platform (Agilent). Cell viability was measured using CellTiter Glo (Promega). For transfections, […] of serum free media containing Lipofectamine RNAiMax […] was added to wells containing siRNA (0.8pmol). Lipid and siRNA were allowed to complex for 45 min at ambient temperature before addition of 1000 cells in DMEM, 30% FBS to yield final transfection mixtures containing 20 nM siRNA in DMEM, 15% FBS. PARPi (olaparib, AZD2281) was added 48 h post-transfection (500 nM) and viability (CellTiter Glo, Promega) was assayed 72 h later on a PerkinElmer Envision 2104 Multilabel plate reader. Ambion Silencer Select Negative Control #2 was incorporated on all screening plates (16 wells) and the median negative control value on each plate was used for normalization. An siRNA targeting Trp53 was used as a positive control. This control yielded a median protective effect of ~1.9 fold versus negative control throughout the screen. The median absolute deviation (MAD) based z-score was calculated for each siRNA. Genes were then ranked by taking the median value for all siRNAs tested against a given gene. Scores were also adjusted for seed-based off-target effects to help deprioritize likely false positives.
row,Sequence,z-score
1,GGCUGCACAAACAUGGUUCTT against Pard6a,inactive: -0.00401
2,GCAUUGUCCAGGUAUCUCATT against B230206H07Rik,inactive: -0.87
3,GGACUUGGACUGUGAAAACTT against Vgll4,inactive: -1.47
4,GGAGAUUUUGAAUAGUAUCTT against Smc4l1,inactive: 0.81
5,GGAUUUCACAGUCAAAAUUTT against Insrr,inactive: 0.16
6,GCAAGACGUGACCUGAAAGTT against Gpc3,inactive: -0.384
7,GGAAAAUGACACAGGUAUCTT against Entpd2,inactive: 0.0364
8,GGAUCUGAAGACAGUGUUUTT against Dap3,inactive: 3.39
9,CCUAACUAAGCUUUCCUUUTT against V2r15,inactive: -0.0904
10,GGAACAAAUGGACGAUCUGTT against Lgtn,inactive: 2.34
11,GGGAGAAGUGCUGUGGAUUTT against Fras1,inactive: 0.552
12,GGAACAAGAAGUUGAAACATT against Capn6,inactive: -2.01
13,GGAUAGCAUCCUCUUGCAUTT against Fa2h,inactive: 0.336
14,GGCUGAGCUGAUCUUCUUATT against Wnt8a,inactive: 0.668
15,CCCGGAAUAAGACAAUUUCTT against Olfr788,inactive: 0.143
16,GGUCCAGAAGCAGAUGCUUTT against Zdhhc15,inactive: -2.28
17,GGUCAAAGUGAUUGUGUGUTT against Cdh16,inactive: 0.535
18,GAGAACUCUCUAAACAAGUTT against Cks2,inactive: -0.465
19,GGCAAAGAAAACAUCAGAGTT against Lap3,inactive: 0.0275
20,CCUCAAUUUCGAAGACCCUTT against Asb6,inactive: 1.02
21,GCUGUUUAAUCUGUUAUGCTT against Rps17,inactive: -1.02
22,GGCUGAUGUGAUGAUUGUATT against Ndufs7,inactive: -0.3
23,GCUAGCAGGCUCAGUUUACTT against D10Wsu93e,inactive: -0.548

# At a glance, some entries already given:
row,Sequence,z-score
11,GGGAGAAGUGCUGUGGAUUTT against Fras1,inactive: 0.552
12,GGAACAAGAAGUUGAAACATT against Capn6,inactive: -2.01
13,GGAUAGCAUCCUCUUGCAUTT against Fa2h,inactive: 0.336
14,GGCUGAGCUGAUCUUCUUATT against Wnt8a,inactive: 0.668

# Carrying on:

row,Sequence,z-score
1,GGUGUUCGACGUGACCAAATT against Pgrmc1,inactive: 1.88
2,GGAAGAACUGUCAAAGAAATT against Cd3g,inactive: 0.565
3,UGGUUUCUCAAGCACUAGUTT against AW146299,inactive: -0.12
4,GGGCAACAGCUUCCAUAAATT against Csrp1,inactive: 0.705
5,GGAGAUCCACCUUUUCAAATT against Fap,inactive: -0.111
6,GGCAAAUCCUCAAAGAUGUTT against Abcg5,inactive: 0.366
7,GGGAUCUCCAUACUCUCCUTT against Prima1,inactive: -1.28
8,GGAGAAGCUAAAAUGUGAGTT against 5730589L02Rik,inactive: 0.512
9,CCAAAUUAGCUUAUGUUCUTT against Sgol1,inactive: -0.503
10,GGAGCAGUGAUGGAGAAUATT against C230012O17Rik,inactive: -1.7
11,GGUUCCUUAAACAUUCAGATT against Sas,inactive: 0.239
12,GGAAGAAUCUGAUUCGUAATT against Snapc5,inactive: 0.261
13,CGACCCUAAGAAGAAUUUUTT against Nsdhl,inactive: 0.55
14,GGAAUUACCAGUGAAAAAUTT against 9630054F20Rik,inactive: 0.212
15,GGAACUGUGUGUCUUCUCCTT against Kcns3,inactive: -0.3
16,GGAAAAAAAAGGAUUUCUCTT against Pnkp,inactive: -0.392
17,CGGAGUCAUACUUUUUCGATT against 9230105E10Rik,inactive: 0.44
18,GGAGAAAGGUGGUUUGGUATT against Hcngp,inactive: -1.24
19,GGAAUAUGUGUGGACUAGATT against Tor3a,inactive: 0.0178
20,CCUACACAUCCUUAAAGUGTT against D330012D11Rik,inactive: 1.16
21,GCAAAACCUAACUAUGUUUTT against 2410017I18Rik,inactive: -1.84
22,GGUCUGGAGACUUUCAGUCTT against Hexa,inactive: 0.767
23,GGAUUUUAAUGGGCUAUGCTT against Zfp114,inactive: -0.366

row,Sequence,z-score
1,UCUGUGGACCAGGAUUUGGTT against Pcsk1n,inactive: -1.1
2,GGAAAAUGGAAUUUGAAGCTT against Ccnb2,inactive: -0.144
3,GCUACUGUACAUCUACUACTT against 2810468K17Rik,inactive: -0.655
4,GGACUUGAAGAUGUACCAGTT against Il12a,inactive: -0.0396
5,GCUAGGUGUUUGAAGCCUCTT against Mixl1,inactive: -0.726
6,CCUUUAGAGGAAUUCACUUTT against Npas2,inactive: -0.324
7,GGUCAUUGCAUCUGACAAGTT against Pcdha2,inactive: -0.34
8,GGCAGCUGAUCAGAAAUCATT against Gabrg3,inactive: 0.942
9,GGUGUGUAUGGUGCUAGGATT against Olfr1507,inactive: 1.59
10,GACCAUCUCCUUUACGGGCTT against Olfr71,inactive: 0.721
11,GGUUUUUUUUUCCAGUCCATT against Stam2,inactive: -1.04
12,CCUAUGAGUCUUACGUGAATT against Cyp4x1,inactive: -0.593
13,GGUAAGCAUGGAAAGGCUGTT against Prdm15,inactive: 0.827
14,GGCUCUUAACUAUGAAAUATT against Apcs,inactive: 0.274
15,GAUUGCCAAAGACAAAAGCTT against V1rh18,inactive: -0.437
16,GGUAUACUAACUUUUAAGGTT against Fmo1,inactive: -0.518
17,GCAUACUCACGUCCACUCATT against Gfi1b,inactive: -0.553
18,GCCUACGCUCUAUCUAGCUTT against 2900091E11Rik,inactive: -0.0221
19,GGAACAAGUAAAAUUCGUCTT against Stk22b,inactive: 1.54
20,GCAAAAGCUUUACUUAGUATT against Prlpi,inactive: 0.0719
21,GCUCUCGAUCAGGAUGUAATT against Vsx1,inactive: -0.859
